One compound from ChEMBL document CHEMBL5365534, “Discovery of a Novel Ketohexokinase Inhibitor with Improved Drug Distribution in Target Tissue for the Treatment of Fructose Metabolic Disease” (J Med Chem, 2023) can be followed below.

A value given as a limit tells only on which side of the number the result lay.

Data set [1] is described as follows: physchem.
A short description of data set [2]: physchem. To be noted: buffer, pH 7.4.

One may read the kinetic solubility as the concentration staying in solution when a stock, usually in DMSO, is diluted into the medium. As usually defined, the logD is the decadic logarithm of the distribution of all forms, ionised or not, between an organic phase and buffer at a given pH. Low values mean a more hydrophilic compound, high ones a more lipophilic compound. In the data set “physchem [1]”, `C[C@H]1CCN1c1nc(N2CCC3(CC(C(=O)O)C3)C2)cc(C(F)(F)F)c1C#N` (some centres not stated) showed a solubility (kinetic) of over 1000 µM. In addition, in the data set “physchem [2]”, the logD came out at 1.75.
